# Reference: US9931372B2 (Novartis AG, priority 2015, dated 2018)
# How the values were obtained:
# [1] = general procedure: Fmoc solid-phase peptide synthesis; H-Phe-2-ClTrt resin (Novabiochem, 0.73 mmol/g); settings: late stage modification step
# [2] = general procedure: Fmoc solid-phase peptide synthesis; H-Phe-2-ClTrt resin; settings: whole synthesis, scale 0.75 mmol
Substance,step yield [1] [% yield],crude mass [2] [g],crude yield [2] [%]
Fatty Acid-Linker#1Q-R-P-R-L-C*-H-K-G-P-(Nle)-C*-F (C6-C12 Disulfide Bridge),54,,
H2N-Q(Trt)-R(Pbf)-P-R(Pbf)-L-C(Trt)-H(Trt)-K(Boc)-G-P-(Nle)-C(Trt)-F-COOH,,2.09,68
